For at least one compound, name, drawing or mass did not settle the structure.
Tested on: transcription/translation process
Experiment: ITC heat rate of coupled transcription/translation (S30 extract)
Format: biochemical
Details: 20 μl of 20 mM tetracycline in 2 ml substrate mixture; at the fifth injection of S30 extract

**Q.** For CN(C)[C@@H]1C(O)=C(C(N)=O)C(=O)[C@@]2(O)C(O)=C3C(=O)c4c(O)cccc4[C@@](C)(O)[C@H]3C[C@@H]12 [tetracycline], which “Effect on heat rate of transcription/translation process” value is on record?
**A.** Its value is “a portion of the transcription/translation process is inhibited”.
